Some of the results follow.
Columns and labels:
Experiment in all cases: log2 fold change, soluble protein after heating vs DMSO (PISA); higher = thermal stabilisation; K562 lysate, 10 uM; active = over 0.2 and 3.5 SD of the protein, either way, in both replicates (recomputed)
lapatinib = compound: CS(=O)(=O)CCNCc1ccc(-c2ccc3ncnc(Nc4ccc(OCc5cccc(F)c5)c(Cl)c4)c3c2)o1 [lapatinib]
How it was run: (§1)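 Values give the log-two fold change in thermal stability against solvent controls, from duplicates. Crude K562 extract at 1 mg/mL protein, made by dounce homogenisation in PBS pH 7.4 with 1 mM MgCl2, was treated with 10 μM compound for 30 min. After 3 min heating across 48°C-58°C, aliquots were pooled, adjusted to 0.5% NP-40 at 4°C and centrifuged at 21,000xg for 90 min. The supernatant was measured by TMTpro 16plex LC-MS/MS with channel sums equalised.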

Protein sequences, listed by entry. Tags and fused reporters are not part of them. Lines headed by an entry give the natural chain unless they say otherwise; changes in a name come on top.
UniProt Q9UHB7: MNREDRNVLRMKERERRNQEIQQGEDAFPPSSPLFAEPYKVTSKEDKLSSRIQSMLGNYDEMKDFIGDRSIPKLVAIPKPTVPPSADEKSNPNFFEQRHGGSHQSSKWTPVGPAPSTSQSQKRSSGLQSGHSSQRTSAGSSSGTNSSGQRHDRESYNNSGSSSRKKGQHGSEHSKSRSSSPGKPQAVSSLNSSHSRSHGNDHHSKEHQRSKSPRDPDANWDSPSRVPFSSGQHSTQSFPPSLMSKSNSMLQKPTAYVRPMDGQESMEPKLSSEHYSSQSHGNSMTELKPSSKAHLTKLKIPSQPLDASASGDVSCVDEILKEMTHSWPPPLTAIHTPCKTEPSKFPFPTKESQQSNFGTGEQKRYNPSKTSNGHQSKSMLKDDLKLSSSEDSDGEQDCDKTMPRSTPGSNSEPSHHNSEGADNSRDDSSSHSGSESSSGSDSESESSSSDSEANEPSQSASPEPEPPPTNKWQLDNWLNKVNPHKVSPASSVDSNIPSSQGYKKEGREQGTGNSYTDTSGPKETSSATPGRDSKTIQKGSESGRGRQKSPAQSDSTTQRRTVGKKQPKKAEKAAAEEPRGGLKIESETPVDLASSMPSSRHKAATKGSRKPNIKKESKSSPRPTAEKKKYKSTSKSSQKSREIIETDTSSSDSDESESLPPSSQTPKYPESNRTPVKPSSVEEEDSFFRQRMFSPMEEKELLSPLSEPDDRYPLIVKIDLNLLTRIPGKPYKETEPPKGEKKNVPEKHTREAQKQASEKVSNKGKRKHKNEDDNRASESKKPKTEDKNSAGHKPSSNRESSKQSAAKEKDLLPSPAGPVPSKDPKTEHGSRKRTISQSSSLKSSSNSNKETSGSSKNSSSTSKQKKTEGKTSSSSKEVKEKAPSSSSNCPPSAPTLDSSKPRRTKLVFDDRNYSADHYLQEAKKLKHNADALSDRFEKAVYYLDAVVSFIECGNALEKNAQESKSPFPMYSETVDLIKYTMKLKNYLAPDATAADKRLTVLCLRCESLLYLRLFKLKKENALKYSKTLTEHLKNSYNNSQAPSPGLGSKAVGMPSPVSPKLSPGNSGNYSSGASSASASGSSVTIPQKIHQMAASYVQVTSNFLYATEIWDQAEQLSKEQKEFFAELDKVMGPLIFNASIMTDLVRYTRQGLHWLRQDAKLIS
UniProt Q9BRQ8: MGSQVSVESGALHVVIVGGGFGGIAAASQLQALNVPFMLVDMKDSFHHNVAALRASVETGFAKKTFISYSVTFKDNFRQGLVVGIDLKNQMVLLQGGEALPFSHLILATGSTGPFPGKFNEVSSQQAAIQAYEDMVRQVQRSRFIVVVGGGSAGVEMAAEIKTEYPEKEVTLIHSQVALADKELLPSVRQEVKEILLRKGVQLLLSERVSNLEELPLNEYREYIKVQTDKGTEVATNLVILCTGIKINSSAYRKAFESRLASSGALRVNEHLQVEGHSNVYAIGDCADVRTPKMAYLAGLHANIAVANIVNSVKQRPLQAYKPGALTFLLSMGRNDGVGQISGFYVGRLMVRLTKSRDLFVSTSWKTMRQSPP
UniProt Q53FZ2: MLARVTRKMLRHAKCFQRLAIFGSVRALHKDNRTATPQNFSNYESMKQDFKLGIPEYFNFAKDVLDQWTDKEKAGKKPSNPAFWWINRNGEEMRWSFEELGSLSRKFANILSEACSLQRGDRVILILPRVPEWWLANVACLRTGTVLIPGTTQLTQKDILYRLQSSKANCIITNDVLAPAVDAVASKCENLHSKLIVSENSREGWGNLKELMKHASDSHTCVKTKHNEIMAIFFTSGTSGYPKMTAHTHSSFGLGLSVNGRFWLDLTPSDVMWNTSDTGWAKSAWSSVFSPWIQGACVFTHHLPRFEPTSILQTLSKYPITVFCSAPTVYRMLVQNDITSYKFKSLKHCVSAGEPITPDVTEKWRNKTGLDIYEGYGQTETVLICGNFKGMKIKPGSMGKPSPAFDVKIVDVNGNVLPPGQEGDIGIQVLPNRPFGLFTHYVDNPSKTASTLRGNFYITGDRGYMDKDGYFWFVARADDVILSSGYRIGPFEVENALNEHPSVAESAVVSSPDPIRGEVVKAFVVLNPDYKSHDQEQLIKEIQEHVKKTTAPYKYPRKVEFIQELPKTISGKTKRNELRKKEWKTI
UniProt O00468: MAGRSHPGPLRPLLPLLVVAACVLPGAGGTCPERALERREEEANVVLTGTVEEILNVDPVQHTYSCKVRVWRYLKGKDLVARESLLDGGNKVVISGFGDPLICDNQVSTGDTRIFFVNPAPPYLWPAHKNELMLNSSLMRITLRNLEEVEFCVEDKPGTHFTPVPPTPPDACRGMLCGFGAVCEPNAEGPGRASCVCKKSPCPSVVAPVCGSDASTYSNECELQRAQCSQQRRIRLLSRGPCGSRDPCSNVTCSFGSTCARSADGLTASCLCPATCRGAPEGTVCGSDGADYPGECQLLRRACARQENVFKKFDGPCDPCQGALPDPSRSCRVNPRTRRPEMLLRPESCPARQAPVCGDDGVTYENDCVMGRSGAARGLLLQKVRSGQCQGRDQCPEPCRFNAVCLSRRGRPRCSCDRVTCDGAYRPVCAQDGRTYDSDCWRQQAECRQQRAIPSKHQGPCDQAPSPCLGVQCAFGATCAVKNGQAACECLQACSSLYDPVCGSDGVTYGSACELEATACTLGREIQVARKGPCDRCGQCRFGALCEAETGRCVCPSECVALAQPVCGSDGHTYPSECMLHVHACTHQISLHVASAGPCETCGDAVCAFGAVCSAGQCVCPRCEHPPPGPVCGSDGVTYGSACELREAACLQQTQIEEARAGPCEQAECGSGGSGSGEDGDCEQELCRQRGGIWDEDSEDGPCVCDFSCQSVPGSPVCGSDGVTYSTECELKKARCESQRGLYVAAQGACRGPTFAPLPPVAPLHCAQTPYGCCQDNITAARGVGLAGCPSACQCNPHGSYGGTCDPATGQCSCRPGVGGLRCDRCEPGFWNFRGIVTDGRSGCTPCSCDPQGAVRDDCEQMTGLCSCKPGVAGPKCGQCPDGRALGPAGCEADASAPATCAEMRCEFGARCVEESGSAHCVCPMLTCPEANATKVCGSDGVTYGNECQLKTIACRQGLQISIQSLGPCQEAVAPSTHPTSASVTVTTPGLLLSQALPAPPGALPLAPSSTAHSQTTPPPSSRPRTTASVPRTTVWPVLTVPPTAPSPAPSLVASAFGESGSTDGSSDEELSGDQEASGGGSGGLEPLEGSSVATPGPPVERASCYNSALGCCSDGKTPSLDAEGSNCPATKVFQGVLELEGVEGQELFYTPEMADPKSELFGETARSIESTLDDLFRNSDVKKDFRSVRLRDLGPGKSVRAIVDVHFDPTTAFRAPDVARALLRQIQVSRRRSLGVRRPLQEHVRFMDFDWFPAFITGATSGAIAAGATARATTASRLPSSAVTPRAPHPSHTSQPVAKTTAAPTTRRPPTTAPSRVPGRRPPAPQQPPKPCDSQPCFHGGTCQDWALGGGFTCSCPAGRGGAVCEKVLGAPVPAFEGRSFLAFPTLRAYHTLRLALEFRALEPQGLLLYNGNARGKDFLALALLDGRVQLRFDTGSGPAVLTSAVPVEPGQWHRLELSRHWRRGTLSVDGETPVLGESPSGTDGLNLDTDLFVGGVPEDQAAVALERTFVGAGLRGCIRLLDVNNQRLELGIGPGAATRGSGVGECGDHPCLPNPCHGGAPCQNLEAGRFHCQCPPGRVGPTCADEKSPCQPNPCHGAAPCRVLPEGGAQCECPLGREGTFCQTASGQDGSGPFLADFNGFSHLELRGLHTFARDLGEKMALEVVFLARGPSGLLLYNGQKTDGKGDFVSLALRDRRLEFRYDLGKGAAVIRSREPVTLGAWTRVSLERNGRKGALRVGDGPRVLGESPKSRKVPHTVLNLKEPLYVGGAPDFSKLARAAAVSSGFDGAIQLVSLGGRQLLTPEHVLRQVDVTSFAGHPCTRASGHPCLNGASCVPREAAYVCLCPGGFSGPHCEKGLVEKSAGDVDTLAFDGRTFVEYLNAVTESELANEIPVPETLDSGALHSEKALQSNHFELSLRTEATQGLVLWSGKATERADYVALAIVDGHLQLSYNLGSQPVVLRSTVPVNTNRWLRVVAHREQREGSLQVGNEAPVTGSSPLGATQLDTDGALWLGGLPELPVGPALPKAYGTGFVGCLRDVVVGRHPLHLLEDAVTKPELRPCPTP
UniProt O43865, whole entry, looked up: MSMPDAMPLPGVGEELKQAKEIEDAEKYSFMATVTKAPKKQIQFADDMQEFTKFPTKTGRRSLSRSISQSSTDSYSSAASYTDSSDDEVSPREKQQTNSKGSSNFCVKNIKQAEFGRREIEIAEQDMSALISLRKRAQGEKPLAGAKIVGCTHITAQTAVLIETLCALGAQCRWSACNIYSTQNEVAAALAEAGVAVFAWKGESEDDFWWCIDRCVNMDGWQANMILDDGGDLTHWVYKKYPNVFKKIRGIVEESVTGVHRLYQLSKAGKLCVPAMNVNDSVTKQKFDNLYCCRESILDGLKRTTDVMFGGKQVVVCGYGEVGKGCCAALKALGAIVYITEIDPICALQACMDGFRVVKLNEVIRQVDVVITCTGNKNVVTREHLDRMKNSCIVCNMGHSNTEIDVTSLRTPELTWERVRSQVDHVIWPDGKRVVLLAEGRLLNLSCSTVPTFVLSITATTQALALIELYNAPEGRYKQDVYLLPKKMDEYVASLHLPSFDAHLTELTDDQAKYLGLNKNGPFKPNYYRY
UniProt Q7Z591: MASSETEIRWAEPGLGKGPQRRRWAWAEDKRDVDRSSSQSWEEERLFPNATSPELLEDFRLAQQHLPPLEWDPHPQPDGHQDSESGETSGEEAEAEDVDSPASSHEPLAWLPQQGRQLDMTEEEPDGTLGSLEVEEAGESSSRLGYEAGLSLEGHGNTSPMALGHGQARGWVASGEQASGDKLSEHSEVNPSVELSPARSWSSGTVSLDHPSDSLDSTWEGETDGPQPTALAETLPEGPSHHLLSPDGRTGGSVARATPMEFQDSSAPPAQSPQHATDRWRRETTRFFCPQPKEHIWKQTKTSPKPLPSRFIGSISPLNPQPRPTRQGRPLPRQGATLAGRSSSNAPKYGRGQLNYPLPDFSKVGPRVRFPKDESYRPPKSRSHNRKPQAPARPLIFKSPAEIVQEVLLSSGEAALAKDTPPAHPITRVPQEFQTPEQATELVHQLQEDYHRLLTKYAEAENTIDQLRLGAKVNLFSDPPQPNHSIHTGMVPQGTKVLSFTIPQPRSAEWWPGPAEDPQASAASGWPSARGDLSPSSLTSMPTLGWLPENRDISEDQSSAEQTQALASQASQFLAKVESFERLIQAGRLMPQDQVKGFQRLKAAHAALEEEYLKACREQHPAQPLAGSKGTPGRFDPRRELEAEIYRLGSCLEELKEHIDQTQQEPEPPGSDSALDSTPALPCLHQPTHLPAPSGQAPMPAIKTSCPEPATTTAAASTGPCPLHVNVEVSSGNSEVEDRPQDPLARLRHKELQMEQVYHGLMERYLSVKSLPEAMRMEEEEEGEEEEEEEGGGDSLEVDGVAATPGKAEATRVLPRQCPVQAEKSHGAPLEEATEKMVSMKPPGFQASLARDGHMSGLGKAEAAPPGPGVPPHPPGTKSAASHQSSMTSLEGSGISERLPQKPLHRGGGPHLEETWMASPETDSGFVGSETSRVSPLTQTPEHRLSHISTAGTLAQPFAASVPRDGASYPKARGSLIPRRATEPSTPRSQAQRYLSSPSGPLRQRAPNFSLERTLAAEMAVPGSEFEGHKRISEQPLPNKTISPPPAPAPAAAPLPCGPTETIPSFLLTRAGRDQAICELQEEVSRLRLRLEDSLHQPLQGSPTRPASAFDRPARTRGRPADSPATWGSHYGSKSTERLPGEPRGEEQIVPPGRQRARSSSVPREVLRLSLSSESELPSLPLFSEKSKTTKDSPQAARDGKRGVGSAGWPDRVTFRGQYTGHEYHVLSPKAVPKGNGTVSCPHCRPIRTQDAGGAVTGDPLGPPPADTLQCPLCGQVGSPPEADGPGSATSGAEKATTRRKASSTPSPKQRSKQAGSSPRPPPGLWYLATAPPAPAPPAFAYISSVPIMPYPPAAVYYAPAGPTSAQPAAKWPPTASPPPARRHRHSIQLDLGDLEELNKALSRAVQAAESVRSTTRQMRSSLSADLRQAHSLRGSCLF
UniProt P11766: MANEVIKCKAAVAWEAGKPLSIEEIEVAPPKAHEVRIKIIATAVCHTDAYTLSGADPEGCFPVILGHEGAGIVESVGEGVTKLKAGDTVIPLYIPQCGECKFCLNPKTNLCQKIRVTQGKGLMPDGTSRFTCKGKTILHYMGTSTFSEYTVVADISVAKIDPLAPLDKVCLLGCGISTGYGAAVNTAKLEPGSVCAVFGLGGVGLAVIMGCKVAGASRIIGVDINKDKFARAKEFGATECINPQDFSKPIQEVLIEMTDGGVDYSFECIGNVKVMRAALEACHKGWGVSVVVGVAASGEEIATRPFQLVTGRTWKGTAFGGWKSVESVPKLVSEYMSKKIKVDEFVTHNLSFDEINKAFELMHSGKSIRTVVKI

pictilisib = compound: CS(=O)(=O)N1CCN(Cc2cc3nc(-c4cccc5[nH]ncc45)nc(N4CCOCC4)c3s2)CC1 [pictilisib]
How it was run: as §1

crizotinib = compound: C[C@@H](Oc1cc(-c2cnn(C3CCNCC3)c2)cnc1N)c1c(Cl)ccc(F)c1Cl [crizotinib]
How it was run: as §1

[1] = compound: C[C@H](C1=CC=C(C=C1)C(=O)NC2=C3C=CNC3=NC=C2)N
How it was run: as §1

duvelisib = compound: C[C@H](Nc1ncnc2nc[nH]c12)c1cc2cccc(Cl)c2c(=O)n1-c1ccccc1 [duvelisib]
How it was run: as §1

gandotinib = compound: Cc1cc(Nc2cc(CN3CCOCC3)c3nc(C)c(Cc4ccc(Cl)cc4F)n3n2)n[nH]1 [gandotinib]
How it was run: as §1

tozasertib = compound: Cc1cc(Nc2cc(N3CCN(C)CC3)nc(Sc3ccc(NC(=O)C4CC4)cc3)n2)n[nH]1 [tozasertib]
How it was run: as §1

doramapimod = compound: Cc1ccc(-n2nc(C(C)(C)C)cc2NC(=O)Nc2ccc(OCCN3CCOCC3)c3ccccc23)cc1 [doramapimod]
How it was run: as §1

bafetinib = compound: Cc1ccc(NC(=O)c2ccc(CN3CC[C@H](N(C)C)C3)c(C(F)(F)F)c2)cc1Nc1nccc(-c2cncnc2)n1 [bafetinib]
How it was run: as §1

[2] = compound: Cc1cccc(CC(=O)N2CCc3c2ccc(-c2cn(C)c4ncnc(N)c24)c3F)n1
How it was run: as §1

nilotinib = compound: Cc1cn(-c2cc(NC(=O)c3ccc(C)c(Nc4nccc(-c5cccnc5)n4)c3)cc(C(F)(F)F)c2)cn1 [nilotinib]
How it was run: as §1

[3] = compound: Cc1nc(Nc2n[nH]c3c2CN(C(=O)N[C@H](CN(C)C)c2ccccc2)C3(C)C)c2sccc2n1
How it was run: as §1

dasatinib = compound: Cc1nc(Nc2ncc(C(=O)Nc3c(C)cccc3Cl)s2)cc(N2CCN(CCO)CC2)n1 [dasatinib]
How it was run: as §1

[4] = compound: Cc1ncc(-c2ccnc(Nc3ccc(S(C)(=O)=O)cc3)n2)n1C(C)C
How it was run: as §1

[5] = compound: Cn1cc(-c2ccc3c(c2)CCN3C(=O)Cc2cccc(C(F)(F)F)c2)c2c(N)ncnc21
How it was run: as §1

quisinostat = compound: Cn1cc(CNCC2CCN(c3ncc(C(=O)NO)cn3)CC2)c2ccccc21 [quisinostat]
How it was run: as §1

tipifarnib = compound: Cn1cncc1[C@@](N)(c1ccc(Cl)cc1)c1ccc2c(c1)c(-c1cccc(Cl)c1)cc(=O)n2C [tipifarnib]
How it was run: as §1

[6] = compound: NC(=O)Nc1cc(-c2cccc(F)c2)sc1C(=O)N[C@H]1CCCNC1
How it was run: as §1

[7] = compound: NC(=O)c1cnc(N[C@@H]2CCCC[C@@H]2N)nc1Nc1cccc(-n2nccn2)c1
How it was run: as §1

[8] = compound: NC1(c2ccc(-c3nc4ccn5c(=O)[nH]nc5c4cc3-c3ccccc3)cc2)CCC1
How it was run: as §1

Measured: log2 fold change

AFF4 (UniProt Q9UHB7)
inactive: lapatinib 0.003 | pictilisib -0.007 | crizotinib -0.033 | [1] 0.011 | duvelisib 0.059 | gandotinib 0.066 | tozasertib 0 | doramapimod 0 | bafetinib 0.05 | [2] 0.001 | nilotinib -0.039 | [3] -0.068 | dasatinib 0.005 | [4] 0.012 | [5] 0.023 | quisinostat 0.02 | tipifarnib 0.065 | [6] 0.032 | [7] -0.026 | [8] 0.022

AIFM2 (UniProt Q9BRQ8)
active: gandotinib 0.507 | tipifarnib 0.411
inactive: lapatinib 0.132 | pictilisib -0.024 | crizotinib 0.06 | [1] -0.143 | duvelisib 0.004 | tozasertib -0.014 | doramapimod 0.307 | bafetinib 0.086 | [2] 0.089 | nilotinib 0.057 | [3] -0.006 | dasatinib -0.072 | [4] -0.03 | [5] 0.024 | quisinostat -0.105 | [6] -0.028 | [7] -0.054 | [8] 0

ACSM3 (UniProt Q53FZ2)
inactive: lapatinib 0.008 | pictilisib -0.018 | crizotinib -0.014 | [1] 0.011 | duvelisib 0.025 | gandotinib -0.051 | tozasertib 0.002 | doramapimod 0 | bafetinib -0.034 | [2] 0.047 | nilotinib 0.011 | [3] 0.017 | dasatinib -0.02 | [4] -0.026 | [5] 0.017 | quisinostat 0.018 | tipifarnib 0.039 | [6] -0.011 | [7] 0.009 | [8] -0.012

AGRN (UniProt O00468)
inactive: lapatinib -0.048 | pictilisib 0.022 | crizotinib -0.051 | [1] -0.092 | duvelisib -0.073 | gandotinib 0.067 | tozasertib -0.007 | doramapimod 0.019 | bafetinib 0.066 | [2] 0.036 | nilotinib 0.236 | [3] -0.05 | dasatinib 0.053 | [4] -0.048 | [5] 0.107 | quisinostat 0.052 | tipifarnib 0.062 | [6] -0.048 | [7] 0.115 | [8] 0.071

AFDN (UniProt J3KN01)
inactive: lapatinib -0.018 | pictilisib -0.025 | crizotinib -0.026 | [1] 0.021 | duvelisib 0.028 | gandotinib -0.023 | tozasertib 0.011 | doramapimod 0.042 | bafetinib -0.052 | [2] 0.1 | nilotinib -0.006 | [3] -0.007 | dasatinib -0.066 | [4] -0.027 | [5] 0.01 | quisinostat -0.03 | tipifarnib 0.048 | [6] 0.033 | [7] -0.012 | [8] 0.057

ACTR2 (UniProt P61160)
inactive: lapatinib -0.017 | pictilisib -0.031 | crizotinib 0.015 | [1] 0.008 | duvelisib 0.038 | gandotinib 0.005 | tozasertib -0.013 | doramapimod 0.002 | bafetinib 0.036 | [2] -0.026 | nilotinib -0.001 | [3] -0.009 | dasatinib -0.013 | [4] -0.005 | [5] 0.002 | quisinostat 0.003 | tipifarnib 0.032 | [6] -0.004 | [7] -0.033 | [8] -0.007

Copied from the listing (two entries):
AFDN (UniProt J3KN01)
inactive: lapatinib -0.018 | pictilisib -0.025 | crizotinib -0.026 | [1] 0.021 | duvelisib 0.028 | gandotinib -0.023 | tozasertib 0.011 | doramapimod 0.042 | bafetinib -0.052 | [2] 0.1 | nilotinib -0.006 | [3] -0.007 | dasatinib -0.066 | [4] -0.027 | [5] 0.01 | quisinostat -0.03 | tipifarnib 0.048 | [6] 0.033 | [7] -0.012 | [8] 0.057

ACTR2 (UniProt P61160)
inactive: lapatinib -0.017 | pictilisib -0.031 | crizotinib 0.015 | [1] 0.008 | duvelisib 0.038 | gandotinib 0.005 | tozasertib -0.013 | doramapimod 0.002 | bafetinib 0.036 | [2] -0.026 | nilotinib -0.001 | [3] -0.009 | dasatinib -0.013 | [4] -0.005 | [5] 0.002 | quisinostat 0.003 | tipifarnib 0.032 | [6] -0.004 | [7] -0.033 | [8] -0.007

Remaining list, next part.

ADRM1 (UniProt Q16186)
inactive: lapatinib -0.009 | pictilisib -0.012 | crizotinib -0.05 | [1] 0.019 | duvelisib 0.03 | gandotinib -0.014 | tozasertib -0.019 | doramapimod 0.042 | bafetinib 0.006 | [2] 0.02 | nilotinib 0.002 | [3] -0.006 | dasatinib -0.063 | [4] 0.015 | [5] -0.003 | quisinostat -0.102 | tipifarnib -0.017 | [6] 0.011 | [7] 0.008 | [8] -0.003

AFP (UniProt P02771)
inactive: lapatinib 0.123 | pictilisib -0.053 | crizotinib 0.084 | [1] 0.116 | duvelisib -0.026 | gandotinib -0.051 | tozasertib -0.011 | doramapimod -0.032 | bafetinib 0.023 | [2] -0.154 | nilotinib -0.037 | [3] 0.022 | dasatinib 0.054 | [4] -0.01 | [5] 0.024 | quisinostat 0.003 | tipifarnib -0.012 | [6] 0.02 | [7] -0.173 | [8] -0.012

AHCYL1 (UniProt O43865)
inactive: lapatinib -0.001 | pictilisib 0.008 | crizotinib -0.028 | [1] -0.012 | duvelisib 0.043 | gandotinib -0.067 | tozasertib -0.031 | doramapimod 0.013 | bafetinib -0.047 | [2] 0.001 | nilotinib -0.077 | [3] -0.011 | dasatinib -0.015 | [4] 0.021 | [5] 0.02 | quisinostat -0.079 | tipifarnib -0.001 | [6] 0.066 | [7] -0.005 | [8] -0.087

ADPRH (UniProt P54922)
inactive: lapatinib -0.015 | pictilisib -0.01 | crizotinib -0.053 | [1] 0.078 | duvelisib -0.026 | gandotinib -0.052 | tozasertib 0.041 | doramapimod 0.024 | bafetinib -0.029 | [2] 0.031 | nilotinib -0.168 | [3] 0.037 | dasatinib -0.015 | [4] -0.023 | [5] 0.002 | quisinostat -0.07 | tipifarnib 0 | [6] 0.013 | [7] -0.021 | [8] 0.04

ACTR6 (UniProt Q9GZN1)
inactive: lapatinib -0.025 | pictilisib 0.059 | crizotinib -0.03 | [1] -0.127 | duvelisib 0.042 | gandotinib 0.039 | tozasertib 0.001 | doramapimod 0.128 | bafetinib 0.011 | [2] 0.09 | nilotinib 0.056 | [3] -0.024 | dasatinib 0.049 | [4] -0.335 | [5] 0.077 | quisinostat -0.122 | tipifarnib 0.007 | [6] 0.049 | [7] 0.03 | [8] -0.08

AKNA (UniProt Q7Z591)
inactive: lapatinib 0.016 | pictilisib 0.166 | crizotinib 0.006 | [1] 0.171 | duvelisib -0.037 | gandotinib 0.143 | tozasertib 0.138 | doramapimod -0.005 | bafetinib 0.024 | [2] 0.156 | nilotinib -0.167 | [3] -0.225 | dasatinib -0.08 | [4] 0.135 | [5] -0.019 | quisinostat -0.064 | tipifarnib -0.222 | [6] -0.045 | [7] -0.064 | [8] 0

ADK (UniProt P55263)
active: gandotinib 0.532
inactive: lapatinib 0.154 | pictilisib 0.169 | crizotinib 0.235 | [1] -0.007 | duvelisib 0.059 | tozasertib -0.005 | doramapimod 0.014 | bafetinib 0.292 | [2] -0.064 | nilotinib -0.028 | [3] 0.075 | dasatinib 0.463 | [4] 0.046 | [5] -0.005 | quisinostat -0.062 | tipifarnib 0.324 | [6] -0.023 | [7] -0.015 | [8] 0.016

ADH5 (UniProt P11766)
inactive: lapatinib -0.04 | pictilisib -0.025 | crizotinib -0.006 | [1] -0.046 | duvelisib 0.127 | gandotinib 0.049 | tozasertib -0.039 | doramapimod -0.01 | bafetinib -0.021 | [2] -0.012 | nilotinib 0.016 | [3] 0.022 | dasatinib 0.006 | [4] 0.02 | [5] -0.007 | quisinostat -0.065 | tipifarnib 0.02 | [6] -0.011 | [7] -0.025 | [8] 0.007

AKAP11 (UniProt Q9UKA4)
inactive: lapatinib 0.021 | pictilisib -0.08 | crizotinib 0.025 | [1] -0.02 | duvelisib 0.015 | gandotinib -0.176 | tozasertib 0.061 | doramapimod -0.036 | bafetinib -0.084 | [2] -0.005 | nilotinib -0.001 | [3] -0.06 | dasatinib -0.074 | [4] 0.188 | [5] 0.092 | quisinostat 0.012 | tipifarnib 0.022 | [6] 0.008 | [7] 0.014 | [8] -0.05

AGPS (UniProt O00116)
inactive: lapatinib -0.017 | pictilisib -0.049 | crizotinib -0.02 | [1] -0.033 | duvelisib -0.011 | gandotinib 0.019 | tozasertib 0.015 | doramapimod 0.025 | bafetinib 0.002 | [2] 0.083 | nilotinib -0.014 | [3] -0.021 | dasatinib -0.033 | [4] 0.05 | [5] 0.008 | quisinostat 0.064 | tipifarnib -0.015 | [6] 0.014 | [7] 0.004 | [8] 0.003

— the supplement of paper PMC10849652
